{"source": "paper doi:10.1101/2022.01.11.475891", "key": {"[1]": {"biological_target": "T1, IrtB with a C-terminal 10x His tag (subunit of Mtb IrtAB) (M. tuberculosis H37Rv) (UniProt P9WQJ7)", "T1 sequence": "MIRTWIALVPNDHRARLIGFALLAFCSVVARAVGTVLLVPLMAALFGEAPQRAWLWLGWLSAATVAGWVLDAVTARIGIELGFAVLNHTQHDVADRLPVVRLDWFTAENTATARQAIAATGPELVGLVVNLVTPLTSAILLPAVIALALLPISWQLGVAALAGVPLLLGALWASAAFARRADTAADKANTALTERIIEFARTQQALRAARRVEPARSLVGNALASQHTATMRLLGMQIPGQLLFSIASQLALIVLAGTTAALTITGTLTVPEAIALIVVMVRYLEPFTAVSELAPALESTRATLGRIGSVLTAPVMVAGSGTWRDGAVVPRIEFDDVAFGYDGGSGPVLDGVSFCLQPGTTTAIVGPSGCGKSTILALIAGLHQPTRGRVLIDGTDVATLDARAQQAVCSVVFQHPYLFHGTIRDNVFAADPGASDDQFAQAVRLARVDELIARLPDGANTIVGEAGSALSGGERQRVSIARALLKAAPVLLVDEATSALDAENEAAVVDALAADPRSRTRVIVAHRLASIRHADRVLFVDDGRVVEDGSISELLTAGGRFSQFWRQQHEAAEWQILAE", "assay": "cryo-EM structure"}, "[2]": {"biological_target": "T1, IrtB with a C-terminal 10x His tag (subunit of Mtb IrtAB) (M. tuberculosis H37Rv)", "assay": "cryo-EM structure", "remark": "listed apart in the source"}}, "note": "Where two headings read alike, the source gives them in different places. These are yes or no findings as the source states them, for the method shown. A result given as binding can be weak or reduced; the word gives no strength. Where a sequence is shown, tags or fusion partners need not be part of it."}
{"substance": "SID truncated IrtA (subunit of IrtAB_(ΔSID)) (from UniProt P9WQJ9) (domain or fragment)", "values": [{"measurement": "binding", "setting": "[1]", "result": "binds"}, {"measurement": "binding", "setting": "[2]", "result": "binds"}]}
